Experimental data from doi:10.1101/2022.09.20.508642.
Where two headings read alike, the source gives them in different places. No constants are given. Whether binding was seen depends on the method and setting. For part of these data: In cells and extracts the contact can be indirect. Some results given as binding are weak or reduced against the parent protein; the word gives no strength. Sequences can lack the tags named with a protein.

T1: STRUBBELIG (SUB), C-terminal fluorescent protein fusion expressed in Arabidopsis (Arabidopsis thaliana) (UniProt Q8RWZ1)
T1 sequence: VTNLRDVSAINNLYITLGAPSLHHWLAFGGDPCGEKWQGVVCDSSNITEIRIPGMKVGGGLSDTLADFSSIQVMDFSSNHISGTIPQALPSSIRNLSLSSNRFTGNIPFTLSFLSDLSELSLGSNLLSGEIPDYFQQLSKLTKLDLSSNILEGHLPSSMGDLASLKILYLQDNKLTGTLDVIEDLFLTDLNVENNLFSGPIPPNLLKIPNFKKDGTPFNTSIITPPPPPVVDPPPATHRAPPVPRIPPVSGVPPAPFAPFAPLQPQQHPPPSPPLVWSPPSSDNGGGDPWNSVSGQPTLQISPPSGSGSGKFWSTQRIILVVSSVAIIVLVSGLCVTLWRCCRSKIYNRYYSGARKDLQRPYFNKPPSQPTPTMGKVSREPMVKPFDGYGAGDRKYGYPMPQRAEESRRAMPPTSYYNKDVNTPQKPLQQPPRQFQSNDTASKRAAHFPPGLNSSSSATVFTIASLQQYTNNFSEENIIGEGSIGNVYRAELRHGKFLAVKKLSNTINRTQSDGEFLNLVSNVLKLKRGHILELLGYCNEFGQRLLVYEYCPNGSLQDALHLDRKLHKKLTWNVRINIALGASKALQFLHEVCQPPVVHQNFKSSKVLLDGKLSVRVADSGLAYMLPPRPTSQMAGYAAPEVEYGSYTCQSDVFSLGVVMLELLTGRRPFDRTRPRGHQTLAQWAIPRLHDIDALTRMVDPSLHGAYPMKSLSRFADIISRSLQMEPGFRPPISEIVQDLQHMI

B1: STRUBBELIG (SUB) extracellular domain, yeast two-hybrid fusion (domain or fragment, UniProt Q8RWZ1 25-341)
chain: VTNLRDVSAINNLYITLGAPSLHHWLAFGGDPCGEKWQGVVCDSSNITEIRIPGMKVGGGLSDTLADFSSIQVMDFSSNHISGTIPQALPSSIRNLSLSSNRFTGNIPFTLSFLSDLSELSLGSNLLSGEIPDYFQQLSKLTKLDLSSNILEGHLPSSMGDLASLKILYLQDNKLTGTLDVIEDLFLTDLNVENNLFSGPIPPNLLKIPNFKKDGTPFNTSIITPPPPPVVDPPPATHRAPPVPRIPPVSGVPPAPFAPFAPLQPQQHPPPSPPLVWSPPSSDNGGGDPWNSVSGQPTLQISPPSGSGSGKFWSTQR
B2: STRUBBELIG (SUB), C-terminal fluorescent protein fusion expressed in Arabidopsis (receptor, UniProt Q8RWZ1 25-768)
chain: T1 sequence

Tests used:
[1] = target: STRUBBELIG (SUB) extracellular domain, yeast two-hybrid fusion (Arabidopsis thaliana) (UniProt Q8RWZ1); experiment: two-hybrid
[2] = target: T1, STRUBBELIG (SUB), C-terminal fluorescent protein fusion expressed in Arabidopsis (Arabidopsis thaliana); experiment: FRET or BRET
[3] = target: T1, STRUBBELIG (SUB), C-terminal fluorescent protein fusion expressed in Arabidopsis (Arabidopsis thaliana); experiment: FRET or BRET; remark: listed apart in the source

Row | Binder | binding [1] | binding [2] | binding [3]
1 | B1 | binds | – | –
2 | B2 | – | binds | binds
